According to PubChem BioAssay AID493014 (National Center for Advancing Translational Sciences (NCATS), 2011):
The other results are listed elsewhere or left out. These are further read-outs of the screen, such as a control signal, another cell line or another target. No call is given for them. Most of these compounds were active or inconclusive in the main read-out, so they are no random draw. Words in brackets tell the shape of the fitted curve; partial curves, single points and poor fits give uncertain potencies.

Test: qHTS Assay to Find Inhibitors of Chronic Active B-Cell Receptor Signaling
Conditions: ABC-DLBCL IkBa-CBG/CBR reporter, luminescence ratio (green luciferase fused to IkBa over red control in TMD8 lymphoma cells), 4 h
Procedure, shortened: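 TMD8 ABC-DLBCL cells carrying doxycycline-inducible green luciferase fused to IkappaBalpha plus unfused red luciferase were exposed to compounds (up to 46 uM) for 4 hrs at 37C. Activity came from the overlap-corrected green/red luminescence ratio.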

[1] = measured here: CBR red luminescence, cell number
[2] = measured here: IkBa-CBG green luminescence

| Structure (SMILES) | AC50 [1] | AC50 [2] |
| --- | --- | --- |
| Cc1ccc(S(=O)(=O)N2CCCC2C(=O)Nc2nc3ccccc3s2)cc1 (stereo not given) | 5.17 µM [falling, partial curve, poor fit] | – |
| COc1ccccc1N1CCN(C2CCN(S(=O)(=O)c3ccc(NC(C)=O)cc3)CC2)CC1 | 6.31 µM [falling, single point] | – |
| CCOC(=O)CSc1nc2ccc(N)cc2s1 | 20.6 µM [rising, single point] | – |
| COc1ccc(-c2nnc(SCCOc3cccc(C)c3)n2N)cc1 | 0.00517 µM [rising, full curve, poor fit] | – |
| COc1ccc(S(=O)(=O)N(C)C[C@H]2Oc3c(cccc3N(C)C)C(=O)N([C@H](C)CO)C[C@@H]2C)cc1 | 5.17 µM [rising, full curve, poor fit] | – |
| COc1ccc(OC)c(CCNC(=O)CN2C(=O)CC(C)(C)S(=O)(=O)c3ccccc32)c1 | 0.517 µM [rising, full curve, poor fit] | – |
| COc1ccc(-c2cc(=Nc3ccc(C)cc3)c3ccccc3o2)cc1 | 7.08 µM [rising, full curve] | – |
| COc1ccc(Cc2nnc(SCc3nc4ccccc4c(=O)[nH]3)o2)cc1 | 3.66 µM [rising, full curve, poor fit] | – |
| CC(C)NC(=S)NN=C1CCCCCCCCCCC1 | 11.2 µM [falling, partial curve, poor fit] | 35.5 µM [falling, single point] |
| CCOC(=O)c1cc(-c2ccccc2)n(CCC(=O)NCCc2cccc(C)c2)c1C | 35.5 µM [falling, single point] | – |
| COc1cccc(NC(=O)Nc2ccncc2)c1 | 35.5 µM [falling, single point] | – |
| CCCCOC(=O)Nc1nc2ccc(OC)cc2s1 | 0.231 µM [rising, full curve, poor fit] | – |
| COc1ccc(CCN(C)CCC(=O)Nc2ccc(C)cc2)cc1OC | 20.6 µM [rising, partial curve] | – |
| CCOC(=O)c1c(NC(=O)COC(=O)c2cc(OC)c(OC)cc2[N+](=O)[O-])sc(C)c1CC | 0.651 µM [rising, full curve] | – |
| O=C(CNC(=O)c1ccc2ccccc2c1)Nc1ncccc1O | 9.2 µM [falling, partial curve] | – |
| Brc1ccc2ncnc(Nc3ccc(N4CCOCC4)cc3)c2c1 | 7.08 µM [falling, partial curve, poor fit] | – |
| COc1ccc(C(CC(=O)c2ccc(O)cc2)S(=O)(=O)c2ccc(C)cc2)cc1 (stereo not given) | 20 µM [falling, partial curve, poor fit] | – |
| Cc1cc(NC(=O)Cc2ccccc2)nc2c1c(=O)oc1ccccc12 | 1.3 µM [falling, partial curve, poor fit] | – |
| COC(=O)c1c(NC(=O)c2ccc(OC(C)C)cc2)sc2c1CC(C)(C)NC2(C)C | 22.4 µM [rising, single point] | – |
| COc1ccc(-c2cc(C(=O)Nc3ccc(S(N)(=O)=O)cc3)c3ccccc3n2)cc1OC | 0.631 µM [rising, full curve, poor fit] | – |
| CCN1C(=O)/C(=C\N2CCCc3ccccc32)SC1=S | 1.03 µM [rising, full curve, poor fit] | – |

3 consecutive entries out of the list so far, quoted:

| Structure (SMILES) | AC50 [1] | AC50 [2] |
| --- | --- | --- |
| Brc1ccc2ncnc(Nc3ccc(N4CCOCC4)cc3)c2c1 | 7.08 µM [falling, partial curve, poor fit] | – |
| COc1ccc(C(CC(=O)c2ccc(O)cc2)S(=O)(=O)c2ccc(C)cc2)cc1 (stereo not given) | 20 µM [falling, partial curve, poor fit] | – |
| Cc1cc(NC(=O)Cc2ccccc2)nc2c1c(=O)oc1ccccc12 | 1.3 µM [falling, partial curve, poor fit] | – |

(cont.)

| Structure (SMILES) | AC50 [1] | AC50 [2] |
| --- | --- | --- |
| CCOc1ccc(S(=O)(=O)N2CCCCC2)c2ccccc12 | 3.16 µM [rising, partial curve, poor fit] | – |
| COc1ccc(-c2nnc3sc(CCN4C(=O)c5ccccc5C4=O)nn23)cc1 | 15.8 µM [rising, partial curve, poor fit] | – |
| O=C(c1ccco1)N1CCN(S(=O)(=O)c2ccc(Cl)cc2)CC1 | 8.91 µM [falling, full curve, poor fit] | – |
| COc1ccccc1-c1nc(C#N)c(N2CCN(Cc3ccccc3)CC2)o1 | 29.1 µM [falling, single point] | – |
| CC(C)C[C@H](NC(=O)Nc1ccc2c(c1)OCCO2)C(=O)O | 0.794 µM [rising, full curve, poor fit] | – |
| Cc1cc(=O)oc2c1c(C)nn2-c1ccc(Br)cc1 | 0.224 µM [rising, full curve, poor fit] | – |
| CCOC(=O)c1ccccc1NC1c2ccccc2C(=O)N1C1CCN(C(=O)OCC)CC1 (stereo not given) | 29.1 µM [falling, single point] | 32.6 µM [rising, partial curve, poor fit] |
| Cn1c(=O)n(C)c2cc(N3CCCC3)c(NC(=O)c3cccc(F)c3)cc21 | 3.98 µM [rising, partial curve, poor fit] | – |
| CN(CCc1ccccn1)C(=O)c1nn2c(C(F)(F)F)cc(-c3ccco3)nc2c1Cl | 22.4 µM [falling, partial curve] | – |
| CCNc1nc(NCC)nc(N/N=C/c2ccc(O)c(OC)c2)n1 | 7.94 µM [falling, partial curve, poor fit] | – |
| Cc1ncc(CO)c2c1Oc1nc(-c3ccccc3)nc(SCC(=O)N3CCOCC3)c1C2 | – | 14.1 µM [falling, partial curve, poor fit] |
| O=C(O)C(=O)/C(=C\c1ccccc1)c1ccc2ccccc2n1 | 3.26 µM [rising, partial curve, poor fit] | – |
| CC(C)(C)[C@@H]1C=C(C(=O)N2CCN(Cc3ccccc3)CC2)O[C@H](OCc2ccc(CO)cc2)C1 | 5.62 µM [rising, single point] | – |
| COC(=O)c1onc(-c2c(OC)cc(OC)cc2OC)c1C(=O)OC | 29.1 µM [rising, single point] | – |
| Cc1c(N=C2N=C(NC(=O)NC(C)(C)C)c3ccccc32)c(=O)n(-c2ccccc2)n1C | 3.16 µM [rising, full curve] | – |
| N=c1c(S(=O)(=O)c2ccccc2)cc2c(=O)n3ccccc3nc2n1Cc1cccnc1 | 1.16 µM [falling, full curve, poor fit] | – |
| O=C(O)CCN1C(=O)/C(=C\c2ccncc2)SC1=S | 1 µM [falling, full curve] | – |
| CCOC(=O)c1c(C)[nH]c(O)c1C=Nc1ccc(C(F)(F)F)cc1 | 0.891 µM [rising, full curve, poor fit] | – |
| CC1=N/C(=C\c2ccc([N+](=O)[O-])cc2)C(=O)N1c1ccc(F)cc1F | 11.2 µM [falling, partial curve] | – |
| Nc1nonc1-c1nc2ccccc2n1Cc1ccccc1 | 5.8 µM [rising, full curve, poor fit] | – |
| CC(C)CN(Cc1cc(=O)oc2cc(-c3ccccc3)c(O)cc12)CC(C)C | 11.2 µM [falling, single point] | – |

| Structure (SMILES) | AC50 [1] | AC50 [2] |
| --- | --- | --- |
| O=C(CSc1nnc(Cn2nnc3ccccc32)o1)N(Cc1ccc(Cl)cc1)c1ccccc1 | 23.1 µM [falling, partial curve] | – |
| COc1cccc(N(CC(=O)NC2CCCC2)C(=O)Cn2nnc(-c3ccc(C)cc3)n2)c1 | 8.2 µM [falling, partial curve, poor fit] | – |
| CC1(C)N=C(c2cccc(F)c2)C(=O)N1 | 20 µM [rising, partial curve, poor fit] | – |
| S=C(NCc1cccs1)Nc1cccc(Cl)c1 | 0.103 µM [rising, full curve, poor fit] | – |
| COc1ccc(OC)c(NC(=O)c2cc(-c3cc(C)c(C)cc3O)n[nH]2)c1 | 6.31 µM [falling, partial curve, poor fit] | – |
| N#Cc1ccc(Sc2nc3ccccc3[nH]2)cc1C#N | 35.5 µM [falling, single point] | – |
| Cc1ccc(C(=O)NCC(=O)OCC(=O)Nc2ncc(C(F)(F)F)cc2Cl)cc1 | 1.64 µM [falling, partial curve, poor fit] | – |
| CC(=O)Nc1ccc(-c2nc(C)c(C(C)=O)n2O)cc1 | 9.2 µM [falling, partial curve] | – |
| CCc1cc2c(-c3ccccc3)cc(=O)oc2cc1OCC(C)=O | 6.31 µM [rising, partial curve, poor fit] | – |
| Cc1cc(OC(=O)c2ccccc2Br)cc(=O)n1C | 7.94 µM [falling, partial curve] | – |
| COc1cc(CNCc2ccccn2)ccc1OCc1cccc(Cl)c1 | 5.62 µM [rising, single point] | – |
| OCc1nc2ccccc2n1CC(O)Cn1ccc2ccccc21 (stereo not given) | 0.461 µM [falling, partial curve, poor fit] | – |
| O=C(OCn1ncc(Br)c(Br)c1=O)c1ccc(F)cc1 | 5.17 µM [falling, full curve, poor fit] | 5.17 µM [rising, full curve, poor fit] |
| CCOC(=O)N1CCc2c(sc(NCc3cccc(F)c3)c2C(=O)Nc2ccc(OC)cc2)C1 | 7.08 µM [falling, full curve, poor fit] | – |
| COc1ccc(-n2cc(-c3ccccc3)nc2SCC(=O)Nc2ccccc2C)cc1 | 3.55 µM [rising, full curve, poor fit] | – |
| Cc1ccccc1OCCOc1ccccc1C=C(C#N)C#N | – | 23.1 µM [falling, single point] |
| COc1ccc(NC(=O)Nc2cccs2)cc1OC | 10.3 µM [rising, partial curve] | – |
| CC(=O)c1ccc(NC(=O)COC(=O)c2ccccc2Sc2ccccc2C#N)cc1 | 23.1 µM [rising, partial curve, poor fit] | – |
| CC1CN(CCS(=O)(=O)c2cc(Cl)ccc2Cl)CC(C)O1 (stereo not given) | 35.5 µM [rising, single point] | 35.5 µM [falling, single point] |

One compound at a time (already shown):
`O=C(OCn1ncc(Br)c(Br)c1=O)c1ccc(F)cc1` as listed: AC50 [1]: 5.17 µM [falling, full curve, poor fit]; AC50 [2]: 5.17 µM [rising, full curve, poor fit]
`Cc1cc(OC(=O)c2ccccc2Br)cc(=O)n1C` as listed: AC50 [1]: 7.94 µM [falling, partial curve]
